No constants are given. Whether binding was seen depends on the method and setting. In cells and extracts the contact can be indirect. These calls come from enrichment with a bait or labelling near it, and not all partners need be listed.
How the values were obtained:
[1] = biological target: mCitrine (mCit)-tagged human STING (human), Q86WV6; assay: affinity purification with mass spectrometry; mCit-STING transiently overexpressed in HEK293T (48 hrs), lysis in 1% NP-40 buffer (20 mM Tris-HCl pH 7.4, 150 mM NaCl), IP with anti-GFP antibody cross-linked to Protein A Dynabeads, 2 hrs at 4 °C, four washes; label-free quantification against empty vector control, n = 3 independent IPs; details: remark: other sources report otherwise
[2] = biological target: mCitrine (mCit)-tagged human STING (human) (UniProt Q86WV6); assay: as above

Chains of the proteins cited; added tags and fusions are not shown.
UniProt Q86WV6: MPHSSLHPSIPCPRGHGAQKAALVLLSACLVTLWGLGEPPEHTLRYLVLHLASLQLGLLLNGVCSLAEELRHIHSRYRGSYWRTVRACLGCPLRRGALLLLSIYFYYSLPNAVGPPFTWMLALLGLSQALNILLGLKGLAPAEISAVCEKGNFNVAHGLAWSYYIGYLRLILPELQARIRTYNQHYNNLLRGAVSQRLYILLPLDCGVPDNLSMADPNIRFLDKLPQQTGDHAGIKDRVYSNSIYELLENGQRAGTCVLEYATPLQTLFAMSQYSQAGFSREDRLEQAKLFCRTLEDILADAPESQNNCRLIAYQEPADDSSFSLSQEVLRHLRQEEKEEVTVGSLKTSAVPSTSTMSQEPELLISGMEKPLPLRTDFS

| Binder | binding [1] | binding [2] |
| --- | --- | --- |
| TANK-binding-kinase 1 (TBK1), Q9UHD2 1-729 (protein) MQSTSNHLWLLSDILGQGATANVFRGRHKKTGDLFAIKVFNNISFLRPVDVQMREFEVLKKLNHKNIVKLFAIEEETTTRHKVLIMEFCPCGSLYTVLEEPSNAYGLPESEFLIVLRDVVGGMNHLRENGIVHRDIKPGNIMRVIGEDGQSVYKLTDFGAARELEDDEQFVSLYGTEEYLHPDMYERAVLRKDHQKKYGATVDLWSIGVTFYHAATGSLPFRPFEGPRRNKEVMYKIITGKPSGAISGVQKAENGPIDWSGDMPVSCSLSRGLQVLLTPVLANILEADQEKCWGFDQFFAETSDILHRMVIHVFSLQQMTAHKIYIHSYNTATIFHELVYKQTKIISSNQELIYEGRRLVLEPGRLAQHFPKTTEENPIFVVSREPLNTIGLIYEKISLPKVHPRYDLDGDASMAKAITGVVCYACRIASTLLLYQELMRKGIRWLIELIKDDYNETVHKKTEVVITLDFCIRNIEKTVKVYEKLMKINLEAAELGEISDIHTKLLRLSSSQGTIETSLQDIDSRLSPGGSLADAWAHQEGTHPKDRNVEKLQVLLNCMTEIYYQFKKDKAERRLAYNEEQIHKFDKQKLYYHATKAMTHFTDECVKKYEAFLNKSEEWIRKMLHLRKQLLSLTNQCFDIEEEVSKYQEYTNELQETLPQKMFTASSGIKHTMTPIYPSSNTLVEMTLGMKKLKEEMEGVVKELAENNHILERFGSLTMDGGLRNVDCL | binds |  |
| transmembrane protein 214 (TMEM214) (protein, UniProt Q6NUQ4 1-689) MATKTAGVGRWEVVKKGRRPGVGAGAGGRGGGRNRRALGEANGVWKYDLTPAIQTTSTLYERGFENIMKRQNKEQVPPPAVEPKKPGNKKQPKKVATPPNQNQKQGRFRSLEEALKALDVADLQKELDKSQSVFSGNPSIWLKDLASYLNYKLQAPLSEPTLSQHTHDYPYSLVSRELRGIIRGLLAKAAGSLELFFDHCLFTMLQELDKTPGESLHGYRICIQAILQDKPKIATANLGKFLELLRSHQSRPAKCLTIMWALGQAGFANLTEGLKVWLGIMLPVLGIKSLSPFAITYLDRLLLMHPNLTKGFGMIGPKDFFPLLDFAYMPNNSLTPSLQEQLCQLYPRLKVLAFGAKPDSTLHTYFPSFLSRATPSCPPEMKKELLSSLTECLTVDPLSASVWRQLYPKHLSQSSLLLEHLLSSWEQIPKKVQKSLQETIQSLKLTNQELLRKGSSNNQDVVTCDMACKGLLQQVQGPRLPWTRLLLLLLVFAVGFLCHDLRSHSSFQASLTGRLLRSSGFLPASQQACAKLYSYSLQGYSWLGETLPLWGSHLLTVVRPSLQLAWAHTNATVSFLSAHCASHLAWFGDSLTSLSQRLQIQLPDSVNQLLRYLRELPLLFHQNVLLPLWHLLLEALAWAQEHCHEACRGEVTWDCMKTQLSEAVHWTWLCLQDITVAFLDWALALISQQ |  | binds |
